Experimental data: patent publication US20110046349 (published 2011)

What was measured:
[1] = general procedure: hybrid (solid and solution phase) peptide synthesis; CTC resin (fragments with C-terminal acid); Sieber amide resin (fragments with C-terminal amide); DIC/HOBt hydrate on solid phase (PyBOP, TOTU, TCTU for some couplings); TBTU, TO; conditions: for crude purity (method not given): HPLC; for step yield: recovery yield
[2] = general procedure: hybrid (solid and solution phase) peptide synthesis; CTC resin; DIC/HOBt hydrate on solid phase (PyBOP, TOTU, TCTU for some couplings); TBTU, TO; conditions: whole synthesis

Fmoc-^11Ser(tBu)-Lys(Boc)-Gln(Trt)-Met-Glu(tBu)-^16Glu(tBu)-Glu(tBu)-Ala-Val-Arg(Pbf)-^22Leu-Phe-Ile-Glu(tBu)-Trp(Boc)-^26Leu-OH
crude purity (method not given) ([1]; whole synthesis): 70.60%

Fmoc-^22Phe-Ile-Glu(tBu)-Trp(Boc)-Leu-^27Lys(Boc)-Asn(Trt)-Gly-^30Gly-OH
crude purity (method not given) ([1]; whole synthesis): 95.97%

Fmoc-Ser(tBu)-Lys(Boc)-Gln(Trt)-Met-^15Glu(OtBu)-Glu(OtBu)-Glu(OtBu)-Ala-Val-^20Arg(Pbf)-Leu-OH
crude mass ([2]; scale 8.4 mol): 20.5 kg | crude purity (method not given) ([1]; whole synthesis): 94% | crude yield ([1]; whole synthesis, recovery yield based on target batch size of 8.4 mol): 104%

Fmoc-^22Phe-Ile-Glu(tBu)-Trp(Boc)-Leu-^27Lys(Boc)-Asn(Trt)-Gly-Gly-^31Pro-OH
crude purity (method not given) ([1]; whole synthesis): 95.97%

Fmoc-Ser-Lys-Gln-Met-^15Glu-Glu-Glu-Ala-Val-^20Arg-Leu-Phe-Ile-Glu-^25Trp--Leu-Lys-Asn-Gly-^30Gly-Pro-Ser-Ser-Gly-^35Ala-Pro-Pro-Ser-Lys-^40Lys-Lys-Lys--Lys-Lys-NH2
crude purity (method not given) ([1]; coupling step): 71% | step yield ([1]; coupling step): 89%

Fmoc-^13Gln(Trt)-Met-Glu(tBu)-Glu(tBu)-^17Glu(tBu)-Ala-Val-Arg(Pbf)-^21Leu-Phe-Ile-Glu(tBu)-^25Trp(Boc)-OH
difficulty met ([1]; whole synthesis): with the same problems as encoutered in example 25b | crude purity (method not given) ([1]; whole synthesis): 50.69%

Fmoc-^32Ser(tBu)-Ser(tBu)-Gly-Ala-Pro-Pro-^38Pro-OH
crude purity (method not given) ([1]; whole synthesis): 62.77%

P2-Ser-Lys-Gln-Met-^15Glu-Glu-Glu-Ala-Val-^20Arg-Leu-Phe-Ile-Glu-^25Trp-Leu--Lys-Asn-Gly-^30Gly-Pro-Ser-Ser-Gly-^35Ala-Pro-Pro-Ser-Lys-^40Lys-Lys-Lys-Lys--Lys-NH2
crude purity (method not given) ([1]; late stage modification step): 66%

Fmoc-Phe-Ile-Glu(OtBu)-^25Trp(Boc)-Leu-Lys(Boc)-Asn(Trt)-Gly-^30Gly-Pro-Ser(tBu)-Ser(tBu)-Gly-^35Ala-Pro-Pro-Ser(tBu)-Lys(Boc)-^40Lys(Boc)-Lys(Boc)-Lys(Boc)-Lys(Boc)-Lys(Boc)-NH2
crude purity (method not given) ([1]; coupling step): 97% | step yield ([1]; coupling step, non-corrected): 68%

Fmoc-^13Gln(Trt)-Met-Glu(tBu)-Glu(tBu)-Glu(tBu)-^18Ala-Val-Arg(Pbf)-Leu-Phe-^23Ile-Glu(tBu)-Trp(Boc)-^26Leu-OH
crude purity (method not given) ([1]; whole synthesis): 75.50%

Boc-^1His(Trt)-Gly-Glu(OtBu)-Gly-^5Thr(tBu)-Phe-Thr(tBu)-Ser(tBu)-Asp(OtBu)-^10Leu-OH
crude mass ([2]; scale 11.0 mol): 18.3 kg | crude purity (method not given) ([1]; whole synthesis): 95% | crude yield ([1]; whole synthesis, recovery yield based on target batch size of 11.0 mol): 99%

Fmoc-Phe-Ile-Glu(OtBu)-^25Trp(Boc)-Leu-Lys(Boc)-Asn(Trt)-Gly-OH
crude mass ([2]; scale 17 mol): 27.4 kg | crude purity (method not given) ([1]; whole synthesis): 95% | crude yield ([1]; whole synthesis, recovery yield based on target batch size of 17 mol): 93%

Boc-^1His(Trt)-Gly-Glu(tBu)-^4Gly-PsiThr-Phe-Thr(tBu)-^8Ser(tBu)-Asp(tBu)-Leu-PsiSer-^12Lys(Boc)-OH
crude purity (method not given) ([1]; whole synthesis): 100%

P3-^1His-Gly-Glu-Gly-^5Thr-Phe-Thr-Ser-Asp-^10Leu-Ser-Lys-Gln-Met-^15G1u-Glu--Glu-Ala-Val-^20Arg-Leu-Phe-Ile-Glu-^25Trp-Leu-Lys-Asn-Gly-^30Gly-Pro-Ser-Ser--Gly-^35Ala-Pro-Pro-Ser-Lys-^40Lys-Lys-Lys-Lys-Lys-NH2
crude purity (method not given) ([1]; coupling step): 76% | step yield ([1]; coupling step): 97%

Fmoc-^13Gln(Trt)-Met-Glu(tBu)-Glu(tBu)-Glu(tBu)-Ala-^19Val-Arg(Pbf)-Leu-Phe-Ile-Glu(tBu)-^25Trp(Boc)-Leu-Lys(Boc)-Asn(Trt)-^29Gly-OH
crude purity (method not given) ([1]; whole synthesis): 85.74%

H-Phe-Ile-Glu(OtBu)-^25Trp(Boc)-Leu-Lys(Boc)-Asn(Trt)-Gly-^30Gly-Pro-Ser(tBu)-Ser(tBu)-Gly-^35Ala-Pro-Pro-Ser(tBu)-Lys(Boc)-^40Lys(Boc)-Lys(Boc)-Lys(Boc)-Lys(Boc)-Lys(Boc)-NH2
crude purity (method not given) ([1]; late stage modification step): 73% | step yield ([1]; late stage modification step): 99%

H-^30Gly-Pro-Ser(tBu)-Ser(tBu)-Gly-^35Ala-Pro-Pro-Ser(tBu)-Lys(Boc)-^40Lys(Boc)-Lys(Boc)-Lys(Boc)-Lys(Boc)-Lys(Boc)-NH2
crude purity (method not given) ([1]; whole synthesis): 78% | crude yield ([1]; whole synthesis, recovery yield based on target batch size of 0.54 mmol): 84%

Fmoc-^11Ser(tBu)-Lys(Boc)-Gln(Trt)-Met-Glu(tBu)-^16Glu(tBu)-Glu(tBu)-Ala-Val-^20Arg(Pbf)-Leu-Phe-Ile-Glu(tBu)-^26Trp(Boc)-OH
crude purity (method not given) ([1]; whole synthesis): 69.60%
